PubChem BioAssay AID1671195 | Yale University – 2021

Purpose: 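Regulators of LDL receptor activity judged by labelled LDL uptake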 (primary screen)
Cell system: human Huh7 hepatoma cells
Reagents: siRNA pool against human genes, 18 nM
Duration: about 2 to 2.5 days of knockdown, then 8 h LDL uptake
Treatment: DiI-labelled LDL at 30 µg/ml for 8 h, in lipoprotein-deficient serum medium
Measurement: 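Per-cell DiI-LDL intensity by automated imaging; well means scaled to the plate median and given as a robust z-score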
Scale: robust z-score: higher = more LDL uptake after knockdown
Rule for the call: 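Active when two or more replicates show a robust z-score above 2 or below -2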
In all, the deposit lists about 22,000 reagents; this is an unselected part. About 1,510 of all reagents (6.9%) were called active. 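Active includes knockdowns raising or lowering LDL uptake; positive z-scores mean more uptake, negative mean less.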

gene knocked down	robust z-score, replicate 1	robust z-score, replicate 2	robust z-score, replicate 3	activity call
PAIP2 (poly(A) binding protein interacting protein 2)	0.571	0.309	0.852	inactive
DBNDD1 (dysbindin domain containing 1)	-0.76	-1.14	-0.535	inactive
INPP5J (inositol polyphosphate-5-phosphatase J)	0.887	1.32	1.52	inactive
RASA1 (RAS p21 protein activator 1)	-0.719	-0.573	-0.831	inactive
CENATAC (centrosomal AT-AC splicing factor)	-0.61	-0.891	-0.939	inactive
TMEM134 (transmembrane protein 134)	0.322	0.193	0.37	inactive
BIRC7 (baculoviral IAP repeat containing 7)	-1.11	-1.36	-1.52	inactive
ENDOU (endonuclease, poly(U) specific)	-1.4	-0.977	-1.19	inactive
LAMTOR2 (late endosomal/lysosomal adaptor, MAPK and MTOR activator 2)	-1.39	0.102	-1.1	inactive
CACNG2 (calcium voltage-gated channel auxiliary subunit gamma 2)	-0.00116	1.27	0.401	inactive
CARD17P (caspase recruitment domain family member 17, pseudogene)	-1.71	-2.21	-1.8	active
IL6R (interleukin 6 receptor)	-0.892	-1.06	-0.575	inactive
CCDC60 (coiled-coil domain containing 60)	-0.801	-0.435	-0.917	inactive
POFUT3 (protein O-fucosyltransferase 3)	0.097	-0.265	0.329	inactive
CCT6B (chaperonin containing TCP1 subunit 6B)	0.102	0.26	-0.0833	inactive
IGFBP7 (insulin like growth factor binding protein 7)	0.642	-0.0132	-0.516	inactive
HDAC4 (histone deacetylase 4)	0.784	0.269	2.58	inactive
RPL23AP14 (ribosomal protein L23a pseudogene 14)	-2.1	-2.04	-2.39	active
PPP1R14D (protein phosphatase 1 regulatory inhibitor subunit 14D)	-0.661	0.524	-0.0915	inactive
GNAI2 (G protein subunit alpha i2)	-0.504	-0.63	-0.663	inactive
KCNK3 (potassium two pore domain channel subfamily K member 3)	-0.00187	-0.826	0.303	inactive
PNCK (pregnancy up-regulated nonubiquitous CaM kinase)	-0.112	0.387	-1.37	inactive
OR2L3 (olfactory receptor family 2 subfamily L member 3)	-0.719	-0.315	-0.498	inactive
CFAP68 (cilia and flagella associated protein 68)	-0.565	0.23	-0.201	inactive
HLA-DRB3 (major histocompatibility complex, class II, DR beta 3)	2.17	-0.583	0.964	inactive
LOC387833 (retired record)	-0.382	-0.454	-0.471	inactive
EXD3 (exonuclease 3'-5' domain containing 3)	-1.14	-1.27	-0.0825	inactive
TYK2 (tyrosine kinase 2)	0.667	0.401	0.301	inactive
KDM4B (lysine demethylase 4B)	-0.596	-1.2	-0.625	inactive
TRIML1 (tripartite motif family like 1)	0.0689	-0.126	0.255	inactive
SPRR2F (small proline rich protein 2F)	-1.3	0.0406	-0.631	inactive
ENPP7 (ectonucleotide pyrophosphatase/phosphodiesterase 7)	-0.621	-0.417	0.762	inactive
RPL31P51 (ribosomal protein L31 pseudogene 51)	1.18	1.24	1.24	inactive
ZNF239 (zinc finger protein 239)	0.406	0.776	0.0504	inactive
VASH2 (vasohibin 2)	-1.13	-1.09	-0.971	inactive
MX1 (MX dynamin like GTPase 1)	1.84	-0.661	-0.0334	inactive
MIR3150BHG (MIR3150B host gene)	1.88	1.51	2.12	inactive
MYO16 (myosin XVI)	-1.67	-0.699	-1.46	inactive
TRIM46 (tripartite motif containing 46)	-0.694	-1.07	-0.0475	inactive
RSKR (ribosomal protein S6 kinase related)	-1.32	-1.41	-1.59	inactive
AQP9 (aquaporin 9)	-0.328	-0.531	-0.378	inactive
TMED9 (transmembrane p24 trafficking protein 9)	-2.25	-0.701	-1.81	inactive
ELOVL2 (ELOVL fatty acid elongase 2)	0.558	0.576	0.796	inactive
WWP1P1	-0.104	0.206	0.28	inactive
KRABD4 (KRAB domain containing 4)	-1.09	-1.04	-0.893	inactive
ZNF133 (zinc finger protein 133)	0.927	1.82	1.17	inactive
TESMIN (testis expressed metallothionein like protein)	-1.06	-0.4	1.14	inactive
LOC441134 (retired record)	2.73	2.29	2.17	active
THUMPD2 (THUMP domain 2 tRNA and snRNA guanosine methyltransferase)	3.26	3.6	3.59	active
LOC284120 (retired record)	0.371	0.516	0.57	inactive
LOC441463 (retired record)	1.08	0.242	0.307	inactive
RESF1 (retroelement silencing factor 1)	-1.34	-2.25	0.0788	inactive
LOC439991 (retired record)	-0.355	0.0325	-0.344	inactive
CHRNE (cholinergic receptor nicotinic epsilon subunit)	-2.63	-1.07	-0.19	inactive
BCL10 (BCL10 immune signaling adaptor)	0.833	-0.131	1.2	inactive
TAS1R3 (taste 1 receptor member 3)	-1.26	-1.29	-1.66	inactive
BEST2 (bestrophin 2)	0.37	0.0987	0.825	inactive
MMP23B (matrix metallopeptidase 23B)	-0.832	-0.165	1.08	inactive
LOC442397 (retired record)	-1.23	-1.07	-0.603	inactive
CCR10 (C-C motif chemokine receptor 10)	-0.562	-0.854	-0.689	inactive
PRDM12 (PR/SET domain 12)	1.26	0.804	1.76	inactive
PROS1 (protein S)	0.144	0.0158	0.756	inactive
GSTM2 (glutathione S-transferase mu 2)	-0.863	-0.0123	-1	inactive
DPPA3 (developmental pluripotency associated 3)	2.31	2.01	1.99	active
LOC728510	0.674	0.346	0.542	inactive
ACSBG2 (acyl-CoA synthetase bubblegum family member 2)	1.73	0.0165	-0.478	inactive
SLC16A5	-0.96	-1.24	-0.752	inactive
GSE1 (Gse1 coiled-coil protein)	1.41	0.165	0.301	inactive

Taken from above:
PAIP2 (poly(A) binding protein interacting protein 2), robust z-score, replicate 3 = 0.852
For “robust z-score, replicate 2”, RPL23AP14 (ribosomal protein L23a pseudogene 14) shows -2.04
Entry of MX1 (MX dynamin like GTPase 1) in “activity call”: inactive
CFAP68 (cilia and flagella associated protein 68), robust z-score, replicate 2 = 0.23
Under “robust z-score, replicate 2”, TMEM134 (transmembrane protein 134) reads 0.193
